The M2OR odorant receptor database
This is a selection; strong and weak results do not stand in their true shares. The calls were merged from several studies; some rest on single wells. Some of the results follow.

Target: T1, OR7A10 (Homo sapiens) (UniProt O76100)
T1 sequence (whole entry): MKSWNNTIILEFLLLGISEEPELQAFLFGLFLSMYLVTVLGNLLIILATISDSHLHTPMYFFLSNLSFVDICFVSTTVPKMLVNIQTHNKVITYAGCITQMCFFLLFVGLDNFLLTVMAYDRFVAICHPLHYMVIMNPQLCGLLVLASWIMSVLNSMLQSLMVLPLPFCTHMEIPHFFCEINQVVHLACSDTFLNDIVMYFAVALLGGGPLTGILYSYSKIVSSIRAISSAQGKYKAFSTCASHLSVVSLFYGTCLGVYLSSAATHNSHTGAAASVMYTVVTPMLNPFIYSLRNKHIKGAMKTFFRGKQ
Conditions: stereoisomer not certain
In short: (§1)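 Whether a receptor–molecule pair is responsive (active) rests on the original authors' judgment that its measured signal was statistically different from baseline. Pairs without that judgment are non-responsive (inactive). Sources used varied assay methods, commonly transient luciferase assays in mammalian cell lines.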
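Also: active if original authors judged signal statistically different from baseline.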

Odorant receptor agonist call, active:
COC(=O)c1ccccc1
CC1COCc2cc3c(cc21)C(C)(C)C(C)C3(C)C (centres undefined)

Odorant receptor agonist call, inactive:
COc1ccccc1O
CC(=O)OC(C)(C)C1CC=C(C)CC1 (centres undefined)
O=C1CCCCCCCCCCCC(=O)OCCO1
CC(=O)c1ccccc1
CC(C)CCC(=O)O
CCC1(O)C2(C)CCC(C2)C1(C)C (centres undefined)
C=CC(C)(O)CCC=C(C)C (centres undefined)
CC(C)C(=O)O
CC=Cc1ccc(O)c(OC)c1
COC(=O)c1ccccc1O
O=C1CCCCC1
CCCCO
CCCC(=O)O
CCC=CCCO
CCCCCC(C)=O
CC12CCC(CC1)C(C)(C)O2
CC(C)C=O
C=CCc1ccc(OC(C)=O)c(OC)c1
CCCCCC(=O)O
CC(C)(C)c1ccc(CCC=O)cc1
CC(=O)C(C)=O
CC(=O)OC1CC2CCC1(C)C2(C)C (centres undefined)
CC12CCC(C1)C(C)(C)C2=O (centres undefined)
CC1=NC(C)SC1C (centres undefined)

Target: T2, OR7A17 (Homo sapiens) (UniProt O14581)
T2 sequence (whole entry): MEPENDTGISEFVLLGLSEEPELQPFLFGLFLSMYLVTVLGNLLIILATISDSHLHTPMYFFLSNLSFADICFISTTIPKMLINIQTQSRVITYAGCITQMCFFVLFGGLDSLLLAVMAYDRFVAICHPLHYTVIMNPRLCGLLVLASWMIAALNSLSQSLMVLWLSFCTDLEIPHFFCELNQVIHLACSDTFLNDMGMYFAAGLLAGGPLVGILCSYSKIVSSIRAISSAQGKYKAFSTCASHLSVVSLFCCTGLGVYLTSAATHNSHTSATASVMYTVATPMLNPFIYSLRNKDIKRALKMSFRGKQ
Conditions: stereoisomer not certain
In short: as §1

Odorant receptor agonist call, active:
CC1COCc2cc3c(cc21)C(C)(C)C(C)C3(C)C (centres undefined)

Odorant receptor agonist call, inactive:
COc1ccccc1O
CC(=O)OC(C)(C)C1CC=C(C)CC1 (centres undefined)
O=C1CCCCCCCCCCCC(=O)OCCO1
CC(=O)c1ccccc1
CC(C)CCC(=O)O
COC(=O)c1ccccc1
CCC1(O)C2(C)CCC(C2)C1(C)C (centres undefined)
C=CC(C)(O)CCC=C(C)C (centres undefined)
CC(C)C(=O)O
CC=Cc1ccc(O)c(OC)c1
COC(=O)c1ccccc1O
O=C1CCCCC1
CCCCO
CCCC(=O)O
CCC=CCCO
CCCCCC(C)=O
CC12CCC(CC1)C(C)(C)O2
CC(C)C=O
C=CCc1ccc(OC(C)=O)c(OC)c1
CCCCCC(=O)O
CC(C)(C)c1ccc(CCC=O)cc1
CC(=O)C(C)=O
CC(=O)OC1CC2CCC1(C)C2(C)C (centres undefined)
CC12CCC(C1)C(C)(C)C2=O (centres undefined)
CC1=NC(C)SC1C (centres undefined)

Target: T3, OR7A5 (Homo sapiens) (UniProt Q15622)
T3 sequence (whole entry): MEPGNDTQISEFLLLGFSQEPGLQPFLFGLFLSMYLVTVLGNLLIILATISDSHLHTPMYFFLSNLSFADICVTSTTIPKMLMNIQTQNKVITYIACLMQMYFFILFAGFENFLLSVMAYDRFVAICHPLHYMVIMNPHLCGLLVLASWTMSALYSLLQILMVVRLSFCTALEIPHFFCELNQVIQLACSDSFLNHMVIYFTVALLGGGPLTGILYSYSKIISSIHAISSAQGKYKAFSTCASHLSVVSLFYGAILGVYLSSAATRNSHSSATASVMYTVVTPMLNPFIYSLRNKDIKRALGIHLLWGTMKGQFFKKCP
Conditions: stereoisomer not certain
In short: as §1

Odorant receptor agonist call, active:
CC1COCc2cc3c(cc21)C(C)(C)C(C)C3(C)C (centres undefined)

Odorant receptor agonist call, inactive:
COc1ccccc1O
CC(=O)OC(C)(C)C1CC=C(C)CC1 (centres undefined)
O=C1CCCCCCCCCCCC(=O)OCCO1
CC(=O)c1ccccc1
CC(C)CCC(=O)O
COC(=O)c1ccccc1
CCC1(O)C2(C)CCC(C2)C1(C)C (centres undefined)
C=CC(C)(O)CCC=C(C)C (centres undefined)
CC(C)C(=O)O
CC=Cc1ccc(O)c(OC)c1
COC(=O)c1ccccc1O
O=C1CCCCC1
CCCCO
CCCC(=O)O
CCC=CCCO
CCCCCC(C)=O
CC12CCC(CC1)C(C)(C)O2
CC(C)C=O
C=CCc1ccc(OC(C)=O)c(OC)c1
CCCCCC(=O)O
CC(C)(C)c1ccc(CCC=O)cc1
CC(=O)C(C)=O
CC(=O)OC1CC2CCC1(C)C2(C)C (centres undefined)
CC12CCC(C1)C(C)(C)C2=O (centres undefined)
CC1=NC(C)SC1C (centres undefined)

System: T4, OR7C1
T4 sequence (whole entry): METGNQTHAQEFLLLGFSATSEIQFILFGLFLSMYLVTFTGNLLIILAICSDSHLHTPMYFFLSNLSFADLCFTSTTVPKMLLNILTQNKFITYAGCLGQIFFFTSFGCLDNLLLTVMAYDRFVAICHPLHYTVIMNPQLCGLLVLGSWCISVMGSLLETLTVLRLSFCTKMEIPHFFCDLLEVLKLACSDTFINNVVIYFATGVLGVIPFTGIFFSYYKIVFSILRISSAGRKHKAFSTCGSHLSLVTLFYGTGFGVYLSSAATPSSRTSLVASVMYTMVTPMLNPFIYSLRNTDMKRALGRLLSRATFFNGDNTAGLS
Conditions: stereoisomer not certain
In short: as §1

Odorant receptor agonist call, active:
CC1COCc2cc3c(cc21)C(C)(C)C(C)C3(C)C (centres undefined)

Odorant receptor agonist call, inactive:
COc1ccccc1O
CC(=O)OC(C)(C)C1CC=C(C)CC1 (centres undefined)
O=C1CCCCCCCCCCCC(=O)OCCO1
CC(=O)c1ccccc1
CC(C)CCC(=O)O
COC(=O)c1ccccc1
CCC1(O)C2(C)CCC(C2)C1(C)C (centres undefined)
C=CC(C)(O)CCC=C(C)C (centres undefined)
CC(C)C(=O)O
CC=Cc1ccc(O)c(OC)c1
COC(=O)c1ccccc1O
O=C1CCCCC1
CCCCO
CCCC(=O)O
CCC=CCCO
CCCCCC(C)=O
CC12CCC(CC1)C(C)(C)O2
CC(C)C=O
C=CCc1ccc(OC(C)=O)c(OC)c1
CCCCCC(=O)O
CC(C)(C)c1ccc(CCC=O)cc1
CC(=O)C(C)=O
CC(=O)OC1CC2CCC1(C)C2(C)C (centres undefined)
CC12CCC(C1)C(C)(C)C2=O (centres undefined)
CC1=NC(C)SC1C (centres undefined)
